From PubChem BioAssay AID248 (DTP/NCI, 2004)
The list is a part of this screen's results and no random one: it gathers tests that were run many times, whatever their T/C, doses with no T/C, and many T/C values between a quarter and a half above the control. Further doses and runs are listed elsewhere. T/C: endpoint of the treated group in % of that of the vehicle group. Some doses have a count of surviving animals in place of a T/C: the source files T/C as zero there, which appears to mark a toxic dose or a test without result, not a measured value. Some doses without a T/C left all or most animals alive at the check, yet need not have been tolerated: survival well below the control is almost never listed, so the zero probably covers shortened survival too. Counts of survivors are from the toxicity check (mostly the fifth day) where no day follows; animals may have died later. Schedules are NCI's codes, taken here to give the interval after Q, in days (D) or hours (H), and the number of doses after X. Some schedules carry Z or #; the key to these is not given. Where survival is the endpoint, this PubChem deposit counts one and a half times the control or more as active, and values a quarter to a half above the control carry no call in these data; other NCI protocols may use other cut-offs. Some T/C values are followed by the survivors on the day toxicity was checked, most often the fifth; without a count, all were alive then. Some doses were run more than once; the values are given in rising order. Counts like (3×) say how often a value occurs here.

Tested on: L1210 leukemia ip in BDF1 mice, survival T/C
Experiment: NCI In Vivo Anticancer Drug Screen. Data for tumor model L1210 Leukemia (intraperitoneal) in B6D2F1 (BDF1) mice
Conditions: T/C endpoint: mean survival time, higher T/C = longer survival
[1] = dose: 11.3 mg/kg/injection, schedule: Q01DX010 (ip), vehicle: saline

## O=P1(N(CCCl)CCCl)NCCCO1 (centres undefined)
dose: 7.0 mg/kg/injection, schedule: Q01DX009 (ip), vehicle: saline
  T/C: 107 (2×), 108, 111 % of control
dose: 8.0 mg/kg/injection, schedule: Q03HX032 (ip), vehicle: saline
  T/C: 125 % of control
dose: 8.0 mg/kg/injection, schedule: Q## X032 (ip), vehicle: saline
  T/C: 125 % of control
[1]
  T/C: 101, 103, 104 % of control
  survivor count: 0 of 6
dose: 12.5 mg/kg/injection, schedule: Q01DX009 (oral), vehicle: saline
  T/C: 128 % of control
dose: 12.5 mg/kg/injection, schedule: Q01DX Z (ip), vehicle: saline
  T/C: 110, 112, 117, 120, 141 % of control
dose: 14.0 mg/kg/injection, schedule: Q01DX009 (ip), vehicle: saline
  T/C: 117 (2×), 118, 128 % of control
dose: 17.0 mg/kg/injection, schedule: Q01DX Z (ip), vehicle: saline
  T/C: 136 % of control
dose: 19.0 mg/kg/injection, schedule: Q02DX010 (ip), vehicle: carboxymethylcellulose (CMC)
  T/C: 133 % of control
dose: 19.7 mg/kg/injection, schedule: Q01DX010 (ip), vehicle: saline
  T/C: 129 % of control
dose: 20.0 mg/kg/injection, schedule: Q01DX Z (im), vehicle: saline
  survivor count: 6 of 6
dose: 20.0 mg/kg/injection, schedule: Q02DX010 (ip), vehicle: other
  T/C: 125 % of control
dose: 22.0 mg/kg/injection, schedule: Q01DX015 (ip), vehicle: saline
  T/C: 136 % of control
dose: 22.5 mg/kg/injection, schedule: Q01DX009 (ip), vehicle: saline
  T/C: 130 and 137 % of control
dose: 22.5 mg/kg/injection, schedule: Q01DX010 (ip), vehicle: saline
  T/C: 114, 118, 126, 130 % of control
dose: 22.5 mg/kg/injection, schedule: Q01DX Z (ip), vehicle: saline
  T/C: 125, 132, 147 % of control
dose: 22.5 mg/kg/injection, schedule: Q13HX018 (ip), vehicle: saline
  T/C: 142 % of control
dose: 22.5 mg/kg/injection, schedule: Q## X Z (ip), vehicle: saline
  T/C: 141 % of control
dose: 25.0 mg/kg/injection, schedule: Q01DX001 (ip), vehicle: saline, evaluated on day 30
  T/C: 101 and 105 % of control
dose: 25.0 mg/kg/injection, schedule: Q01DX001 (ip), vehicle: saline, evaluated on day 45
  T/C: 108 % of control
dose: 25.0 mg/kg/injection, schedule: Q01DX001 (ip), vehicle: saline, evaluated on day 60
  T/C: 105 and 107 % of control
dose: 25.0 mg/kg/injection, schedule: Q01DX001 (ip), vehicle: saline, run until all animals had died
  T/C: 96, 111, 112, 121 % of control
dose: 25.0 mg/kg/injection, schedule: Q01DX009 (ip), vehicle: saline, evaluated on day 30
  T/C: 132 % of control [5 of 6 alive]
dose: 25.0 mg/kg/injection, schedule: Q01DX009 (ip), vehicle: saline, evaluated on day 60
  T/C: 146 % of control
dose: 25.0 mg/kg/injection, schedule: Q01DX009 (oral), vehicle: saline
  T/C: 136 % of control
dose: 25.0 mg/kg/injection, schedule: Q01DX Z (ip), vehicle: methylcellulose (MC)
  T/C: 129 % of control [5 of 6 alive]
dose: 25.0 mg/kg/injection, schedule: Q01DX Z (ip), vehicle: saline
  T/C: 118, 120 (2×), 130, 145 % of control
dose: 25.0 mg/kg/injection, schedule: Q01DX Z (oral), vehicle: saline
  T/C: 135 % of control
dose: 25.0 mg/kg/injection, schedule: Q01DX Z (sc), vehicle: saline
  T/C: 125 % of control
dose: 26.0 mg/kg/injection, schedule: Q02DX010 (ip), vehicle: carboxymethylcellulose (CMC)
  T/C: 142 % of control
dose: 26.0 mg/kg/injection, schedule: Q02DX010 (ip), vehicle: saline
  T/C: 127 % of control
dose: 27.0 mg/kg/injection, schedule: Q01DX009 (ip), vehicle: saline
  T/C: 123, 133, 136 [2 of 2 alive], 147 % of control
dose: 27.0 mg/kg/injection, schedule: Q01DX015 (ip), vehicle: saline
  T/C: 135 % of control
dose: 28.0 mg/kg/injection, schedule: Q02DX010 (ip), vehicle: saline
  T/C: 130 and 135 % of control
dose: 28.5 mg/kg/injection, schedule: Q01DX Z (ip), vehicle: carboxymethylcellulose (CMC)
  T/C: 136 % of control
dose: 28.6 mg/kg/injection, schedule: Q02DX010 (ip), vehicle: carboxymethylcellulose (CMC)
  T/C: 138 % of control
dose: 30.0 mg/kg/injection, schedule: Q02DX010 (ip), vehicle: other
  T/C: 129 and 142 % of control
dose: 30.0 mg/kg/injection, schedule: Q04DX002 (ip), vehicle: saline
  T/C: 125 % of control
dose: 33.7 mg/kg/injection, schedule: Q## X006 (ip), vehicle: saline
  T/C: 144 % of control
dose: 35.0 mg/kg/injection, schedule: Q01DX Z (ip), vehicle: saline
  T/C: 141 % of control
dose: 37.5 mg/kg/injection, schedule: Q01DX001 (ip), vehicle: saline, evaluated on day 20
  T/C: 122 % of control
dose: 37.5 mg/kg/injection, schedule: Q01DX001 (ip), vehicle: saline, evaluated on day 30
  T/C: 98, 103, 105, 114 (2×), 115, 117, 118, 126, 128, 130, 135 % of control (2×)
dose: 38.0 mg/kg/injection, schedule: Q01DX Z (ip), vehicle: carboxymethylcellulose (CMC)
  T/C: 147 % of control
